For at least one entry, the source does not settle the construct or the ends of the probe. At least one verdict rests on a figure or table, not on a statement of the authors. Where a protein sequence is shown, tags need not be part of it.
Biological target: T1, DEK (recombinant, baculovirus) (UniProt P35659)
T1 sequence (looked up, limits assumed): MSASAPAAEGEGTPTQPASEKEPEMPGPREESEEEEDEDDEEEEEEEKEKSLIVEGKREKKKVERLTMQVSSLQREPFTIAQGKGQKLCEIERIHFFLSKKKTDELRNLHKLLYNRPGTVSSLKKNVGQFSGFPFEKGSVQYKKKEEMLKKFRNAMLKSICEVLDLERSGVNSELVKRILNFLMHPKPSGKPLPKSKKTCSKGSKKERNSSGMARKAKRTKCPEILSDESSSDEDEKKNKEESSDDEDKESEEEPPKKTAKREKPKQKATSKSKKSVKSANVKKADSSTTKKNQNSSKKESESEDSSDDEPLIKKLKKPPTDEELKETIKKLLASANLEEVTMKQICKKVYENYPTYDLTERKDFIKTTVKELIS
Experiment: filter binding (dot blot, 32P)
Settings: 5 mM Mg2+, 100 ug/ml salmon sperm DNA, screened as clone with library flanks; Selection and dot blot: 20 mM Tris pH 7.6, 100 mM NaCl, 5 mM MgCl2 (selection at room temperature; dot blot with 100 ug/ml salmon sperm DNA); recombinant protein; single-stranded DNA

GGGGTTAAATATTCCCACATTGCCTGCGCCAGTACAAATAG [DTA-64]
binding result: binds

— PMC5303823, “DEK-targeting DNA aptamers as therapeutics for inflammatory arthritis”
